Calls as published in the ROBIN set (doi:10.1002/anie.202211358).

Oligonucleotides screened, 5′ to 3′:
TPP: TPP riboswitch RNA three-way junction, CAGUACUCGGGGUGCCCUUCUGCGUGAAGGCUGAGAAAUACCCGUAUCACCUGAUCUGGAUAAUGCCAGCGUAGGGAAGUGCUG. About 160 hits among about 24,000 compounds.
SAM-II: SAM-II riboswitch RNA pseudoknot, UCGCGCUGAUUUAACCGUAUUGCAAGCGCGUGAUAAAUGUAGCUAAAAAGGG. About 200 hits among about 21,000 compounds.
PreQ1: PreQ1 riboswitch RNA pseudoknot, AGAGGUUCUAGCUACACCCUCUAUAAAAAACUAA. From B. subtilis. About 170 hits among about 24,000 compounds.

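Compounds were printed on reactive glass slides in duplicate spots, a dye-labelled oligonucleotide was laid over them, and the fluorescence left after washing was read. The data file lists only calls. An earlier report of the laboratory on the PreQ1, TPP and SAM-II riboswitches (doi:10.1038/s41467-019-09493-3) used 1 µM RNA for 2 h and required a mean Z-score above 3 (spot signal-to-noise against the whole library), a score well above that on a control array, and duplicate spots agreeing (coefficient of variation under 100); it then also set aside compounds that hit other targets, which this list keeps. The cut-offs behind this list may differ. A missing hit is not proof of no binding, and a hit is not a measured affinity.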
A compound is marked yes if it was called a hit and no if it was screened but was not.
Compounds were drawn at random from those tested, without regard to their results.
A target missing from an entry has no call listed here.
A dash means that no call is listed here.

{"compound": "O=S(=O)(c1ccc(-c2csc(Nc3ccc(Br)cc3)n2)cc1)N1CCOCC1", "TPP": "no", "SAM-II": "no", "PreQ1": "no"}
{"compound": "CCCC(=O)C1=C(NCCc2c(C)[nH]c3ccc(C)cc23)CC(C)(C)CC1=O", "TPP": "no", "SAM-II": "no", "PreQ1": "no"}
{"compound": "Cc1coc2c1C(=O)C(=O)c1c-2ccc2c1CCCC2(C)C", "TPP": "no", "SAM-II": "no", "PreQ1": "no"}
{"compound": "CC(C)CNC1CC(=O)N(c2ccc(C(C)C)cc2)C1=O", "stereo": "stereo unspecified", "TPP": "no", "SAM-II": "no", "PreQ1": "no"}
{"compound": "Cc1ccc(CNc2c(-c3ccccc3)c(=O)c2=O)cc1", "TPP": "no", "PreQ1": "no"}
{"compound": "Nc1nnnn1CC(=O)N1CCCC(CNC(=O)c2cccs2)C1", "stereo": "stereo unspecified", "TPP": "no", "SAM-II": "no", "PreQ1": "no"}
{"compound": "Cc1ccc(-c2c(NCc3ccc4c(c3)OCO4)c(=O)c2=O)cc1", "TPP": "no", "PreQ1": "no"}
{"compound": "Cc1ccc(NC2(C(=O)NC(C(=O)O)c3c(C)n[nH]c3C)CCCCC2)cc1", "stereo": "stereo unspecified", "TPP": "no", "SAM-II": "no", "PreQ1": "no"}
{"compound": "CN(Cc1ccc(Oc2ccccc2)cc1)C(=O)CC1COCCN1", "stereo": "stereo unspecified", "TPP": "no", "SAM-II": "no", "PreQ1": "no"}
{"compound": "CNc1oc(-c2ccc(S(=O)(=O)N(C)C)cc2)nc1C#N", "TPP": "no", "PreQ1": "no"}
{"compound": "CN(Cc1n[nH]c2c1CCCCC2)C(=O)C1NCCc2[nH]cnc21", "stereo": "stereo unspecified", "TPP": "no", "SAM-II": "no", "PreQ1": "no"}
{"compound": "CC1CCCC(Nc2c(-c3ccc(F)cc3)[nH]c3c(C#N)cnn23)C1C", "stereo": "stereo unspecified", "TPP": "no", "PreQ1": "no"}
{"compound": "CC(C)NC[C@@H](C(=O)N1CCN(c2ncnc3c2[C@H](C)C[C@H]3O)CC1)c1ccc(Cl)cc1", "TPP": "no", "SAM-II": "no", "PreQ1": "no"}
{"compound": "Cc1c(-c2ccccc2)n(CCCO)c2nc3c(c(=O)n(C)c(=O)n3C)n12", "TPP": "no", "SAM-II": "no", "PreQ1": "no"}
{"compound": "COCc1nc2ccccc2n1CC(O)COc1ccc(Cl)c(C)c1", "stereo": "stereo unspecified", "TPP": "no", "PreQ1": "no"}
{"compound": "CC1(C)CC(CCNCCN2CCOCC2)(c2ccccc2)CCO1", "stereo": "stereo unspecified", "TPP": "no", "PreQ1": "no"}
{"compound": "C=C(C)C(=O)Nc1ccc(NC(C)C)cc1", "TPP": "no", "SAM-II": "no", "PreQ1": "no"}
{"compound": "C=CCN1CCN(Cc2cc3n(n2)CCNC3)CC1", "TPP": "no", "SAM-II": "no", "PreQ1": "no"}
{"compound": "CCCc1cnc(C)nc1N1CCC(NCCN2CCCC(CO)C2)CC1", "stereo": "stereo unspecified", "TPP": "no", "SAM-II": "no", "PreQ1": "no"}
{"compound": "COc1ccc(NCCCC(=O)NN=Cc2cccc([N+](=O)[O-])c2)cc1", "TPP": "no", "SAM-II": "no", "PreQ1": "no"}
{"compound": "CC(=O)c1ccc(Nc2nc(-c3cccnc3)cs2)cc1", "TPP": "no", "SAM-II": "no", "PreQ1": "no"}
{"compound": "Cc1ccc(C(=O)NC(Nc2ccccc2C(F)(F)F)C(Cl)(Cl)Cl)cc1", "stereo": "stereo unspecified", "TPP": "no", "SAM-II": "no", "PreQ1": "no"}

Some entries from above, unchanged:

Compound,TPP,SAM-II,PreQ1
CC1CCCC(Nc2c(-c3ccc(F)cc3)[nH]c3c(C#N)cnn23)C1C (stereo unspecified),no,-,no
CC(=O)c1ccc(Nc2nc(-c3cccnc3)cs2)cc1,no,no,no